Results published in patent publication US20190330365A1 (University of California, published 2019).
Results are given in words; binding and its absence hold for the method and conditions named. Some entries that bind do so weakly or less than the wild type. For some of these results: Where a sequence is shown, tags or fusion partners need not be part of it.

Legend:
[1] = biological target: T1, Recombinant human LRP6E3E4-Fc (human) (UniProt O75581); experiment: ELISA, antigen coated at 5 µg/ml, biotinylated E34N19 at 5 µg/ml
T1 sequence (looked up): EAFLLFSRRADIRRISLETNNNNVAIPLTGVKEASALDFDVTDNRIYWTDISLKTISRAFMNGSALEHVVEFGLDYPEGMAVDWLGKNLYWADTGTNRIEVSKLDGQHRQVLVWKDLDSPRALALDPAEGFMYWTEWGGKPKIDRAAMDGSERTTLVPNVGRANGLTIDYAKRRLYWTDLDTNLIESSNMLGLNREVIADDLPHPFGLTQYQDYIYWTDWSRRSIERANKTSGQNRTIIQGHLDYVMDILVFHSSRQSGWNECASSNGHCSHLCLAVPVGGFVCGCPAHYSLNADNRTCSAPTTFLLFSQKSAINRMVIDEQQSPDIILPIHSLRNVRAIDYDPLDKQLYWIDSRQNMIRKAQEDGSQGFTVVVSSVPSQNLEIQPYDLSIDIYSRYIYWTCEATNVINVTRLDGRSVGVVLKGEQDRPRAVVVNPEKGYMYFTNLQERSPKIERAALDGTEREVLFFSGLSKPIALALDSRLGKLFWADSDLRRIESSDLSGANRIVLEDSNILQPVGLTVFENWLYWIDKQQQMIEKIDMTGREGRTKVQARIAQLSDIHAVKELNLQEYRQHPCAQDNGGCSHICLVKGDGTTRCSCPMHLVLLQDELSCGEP

[2] = biological target: Mouse full-length LRP6-Fc (R&D Systems) (mouse) (UniProt O88572); experiment: as above
[3] = biological target: T1, Recombinant human LRP6E3E4-Fc (human); experiment: ELISA (FIG. 15A)
[4] = biological target: Mouse full-length LRP6-Fc (R&D Systems) (mouse) (UniProt O88572); experiment: ELISA (FIG. 15A)

Measured: binding

B1: E34N19 (anti-LRP6E3E4 antibody, format not stated) (antibody, V domains shown)
VH: QVNLRESGGGLVQPGGSLRLSCAASGFTFSSYAMSWVRQAPGKGLEWVSAISGSGGSTYYADSVKGRFTISRDNSKNTLYLQMNSLRAEDTAVYYCAKVRGHGGNSGWVDYWGQGTLVTVSS
VL: QSVLTQDPAVSVALGQTVKITCQGDSLRTYYTSWYQQRPGQAPILVLYANTHRPSSIPDRFSGSSSGTTASLTITGAQAEDEADYYCNSRDSSGNYLFGGGTKLTVL
binds: all assays above
